Results published in PMC9113918.
No constants are given. Whether binding was seen depends on the method and setting.

Amino acid sequences for entries named in this document (tags omitted). A change or cut given only in a name is not applied to a line headed by its entry.
UniProt Q9R0N7: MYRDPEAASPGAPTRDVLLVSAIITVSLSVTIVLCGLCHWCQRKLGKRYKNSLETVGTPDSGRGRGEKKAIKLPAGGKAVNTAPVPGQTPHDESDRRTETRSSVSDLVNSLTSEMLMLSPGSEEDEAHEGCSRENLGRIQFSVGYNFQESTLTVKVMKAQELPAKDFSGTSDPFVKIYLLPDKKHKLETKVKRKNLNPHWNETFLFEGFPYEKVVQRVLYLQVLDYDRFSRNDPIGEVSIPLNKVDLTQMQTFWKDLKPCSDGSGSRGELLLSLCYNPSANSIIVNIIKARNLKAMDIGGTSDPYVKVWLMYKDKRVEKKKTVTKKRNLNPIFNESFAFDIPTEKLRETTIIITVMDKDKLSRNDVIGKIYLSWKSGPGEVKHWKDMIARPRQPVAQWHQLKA
UniProt P15381: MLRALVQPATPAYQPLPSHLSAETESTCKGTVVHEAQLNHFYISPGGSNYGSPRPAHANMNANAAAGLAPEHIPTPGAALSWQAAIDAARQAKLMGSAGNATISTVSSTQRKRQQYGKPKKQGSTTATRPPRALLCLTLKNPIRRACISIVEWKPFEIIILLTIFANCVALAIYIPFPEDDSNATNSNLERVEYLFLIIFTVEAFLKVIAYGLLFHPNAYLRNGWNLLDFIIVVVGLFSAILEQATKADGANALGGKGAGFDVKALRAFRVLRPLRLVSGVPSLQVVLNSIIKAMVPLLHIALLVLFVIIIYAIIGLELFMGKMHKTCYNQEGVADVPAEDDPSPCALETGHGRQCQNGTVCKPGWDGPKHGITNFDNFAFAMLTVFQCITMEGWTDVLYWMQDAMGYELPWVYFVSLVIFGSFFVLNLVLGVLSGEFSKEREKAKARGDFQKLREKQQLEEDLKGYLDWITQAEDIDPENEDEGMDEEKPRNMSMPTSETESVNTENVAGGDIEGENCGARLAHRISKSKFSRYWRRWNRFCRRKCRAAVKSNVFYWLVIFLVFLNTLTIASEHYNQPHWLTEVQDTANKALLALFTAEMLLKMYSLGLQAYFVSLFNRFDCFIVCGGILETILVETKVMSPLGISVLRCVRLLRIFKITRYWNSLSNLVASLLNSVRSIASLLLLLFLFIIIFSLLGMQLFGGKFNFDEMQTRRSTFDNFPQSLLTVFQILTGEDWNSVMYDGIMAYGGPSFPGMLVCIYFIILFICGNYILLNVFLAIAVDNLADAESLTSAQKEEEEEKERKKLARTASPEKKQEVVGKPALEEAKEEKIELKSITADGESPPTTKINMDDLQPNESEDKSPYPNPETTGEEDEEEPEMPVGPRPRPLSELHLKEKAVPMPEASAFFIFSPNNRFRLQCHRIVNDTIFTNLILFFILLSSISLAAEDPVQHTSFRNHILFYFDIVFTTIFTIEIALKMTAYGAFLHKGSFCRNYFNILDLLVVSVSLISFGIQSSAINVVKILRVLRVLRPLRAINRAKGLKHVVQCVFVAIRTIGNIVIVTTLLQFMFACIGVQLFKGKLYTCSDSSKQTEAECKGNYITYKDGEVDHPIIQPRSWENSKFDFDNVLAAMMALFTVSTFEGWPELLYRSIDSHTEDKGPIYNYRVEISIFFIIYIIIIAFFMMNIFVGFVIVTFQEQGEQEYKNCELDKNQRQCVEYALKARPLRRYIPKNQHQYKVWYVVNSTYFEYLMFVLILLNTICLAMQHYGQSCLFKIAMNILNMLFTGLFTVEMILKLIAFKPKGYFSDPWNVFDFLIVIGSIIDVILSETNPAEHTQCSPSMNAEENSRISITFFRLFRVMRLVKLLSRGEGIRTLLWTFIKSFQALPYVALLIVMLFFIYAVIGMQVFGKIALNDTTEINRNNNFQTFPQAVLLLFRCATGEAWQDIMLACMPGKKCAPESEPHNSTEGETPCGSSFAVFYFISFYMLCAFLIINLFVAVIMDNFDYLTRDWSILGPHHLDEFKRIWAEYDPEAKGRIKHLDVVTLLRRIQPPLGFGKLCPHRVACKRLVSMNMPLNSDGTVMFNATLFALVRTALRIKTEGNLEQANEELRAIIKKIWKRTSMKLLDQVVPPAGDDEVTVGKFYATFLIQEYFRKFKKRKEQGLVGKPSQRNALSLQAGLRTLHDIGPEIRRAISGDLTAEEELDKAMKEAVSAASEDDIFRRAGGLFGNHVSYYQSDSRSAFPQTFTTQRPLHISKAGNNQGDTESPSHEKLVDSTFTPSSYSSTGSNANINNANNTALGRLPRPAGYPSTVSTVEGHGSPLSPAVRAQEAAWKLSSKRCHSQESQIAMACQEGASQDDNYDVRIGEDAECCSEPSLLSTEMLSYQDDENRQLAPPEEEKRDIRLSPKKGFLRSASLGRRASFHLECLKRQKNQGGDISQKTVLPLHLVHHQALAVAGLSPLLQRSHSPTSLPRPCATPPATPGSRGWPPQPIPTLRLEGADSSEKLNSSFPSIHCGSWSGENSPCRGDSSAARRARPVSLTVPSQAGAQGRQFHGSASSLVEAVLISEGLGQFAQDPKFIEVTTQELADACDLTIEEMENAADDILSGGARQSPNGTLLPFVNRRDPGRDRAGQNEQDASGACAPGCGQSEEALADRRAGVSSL

Target: GST-Syt-7α fusion protein (full-length Syt-7α) (UniProt Q9R0N7)
Assay: pull-down; GST-Syt-7α immobilised on glutathione-Sepharose beads, incubated with purified His-synprint proteins 1 h at 4°C; TBS-Ca2+ buffering system with 0.1% Triton X-100, free Ca2+ 10 μM to 1 mM; eluted with 15 mM reduced glutathione; anti-His immunoblot; both purified

binding: no binding
Substance: His-Cav1.2 synprint (680–800) (from UniProt P15381) (domain or fragment)
